# The other results are listed elsewhere or left out. Potency and affinity values are given separately.
# System: Pseudomonas aeruginosa
# Conditions: Concentration 32 ug.mL-1; ASSAY_TEST Inhibition of Bacterial Growth; detection method Absorption (OD600); MEDIA CAMHB; plate type 384well; NBS; CORNING #3640; time 18 hr
row,Structure (SMILES),Inhibition [%]
1,COc1cc2c(cc1OC)C(=O)C(=Cc1ccoc1)CC2,1.1
2,COc1ccc2c(c1)CCC(=Cc1ccoc1)C2=O,10.57
3,COc1ccc(/C=C/C(=O)c2ccc(OCc3ccc(Br)cc3)cc2)cc1OC,-12.17
4,COc1ccc2c(c1)CCC(=Cc1cccnc1)C2=O,8.07
5,COc1ccc2c(c1)C(=O)C(=Cc1ccccn1)CC2,4.56
6,COc1ccc2c(c1)C(=O)C(=Cc1cccnc1Cl)CC2.Cl,6.28
7,COc1ccc2c(c1)C(=O)C(=Cc1ccco1)CC2,6.4
8,COc1ccc2c(c1)CCC(=Cc1ccncc1)C2=O,6.98
9,COc1ccc2c(c1)C(=O)C(=Cc1cncc(Br)c1)CC2,1.93
10,COc1cccc2c1CCC(=Cc1ccoc1)C2=O,1.34
11,COc1ccc2c(c1)C(=O)C(=Cc1cccnc1)CC2,7.48
12,COc1ccc2c(c1)C(=O)C(=Cc1cnccc1OC)CC2,7.85
13,COc1ccc2c(c1)CCC(=Cc1ccc(OC)nc1)C2=O,12.11
14,CC(C)(C)OC(=O)N1CC(=Cc2ccco2)C(=O)/C(=C/c2ccco2)C1,3.63
15,Cc1ccc(C=C2CN(C(=O)OC(C)(C)C)C/C(=C\c3ccc(C)cc3C)C2=O)c(C)c1,-3.88
16,COc1cc2c(cc1OC)C(=O)C(=Cc1ccco1)CC2,2.91

row,Structure (SMILES),Inhibition [%]
1,COc1ccc2c(c1)C(=O)C(=Cc1ccoc1)CC2,6.67
2,COc1cccc2c1CCC(=Cc1ccco1)C2=O,6.23
3,COc1ccc2c(c1)C(=O)C(=Cc1cccnc1Br)CC2,2.74
4,COc1cccc2c1CCC(=Cc1cccc(C=C3CCc4c(OC)cccc4C3=O)c1)C2=O,-14.78
5,CC(C)(C)OC(=O)N1CC(=Cc2ccoc2)C(=O)/C(=C/c2ccoc2)C1,-1.4
6,COc1ccc2c(c1)CCC(=Cc1ccco1)C2=O,8.37
7,COc1ccc2c(c1)CCC(=Cc1ccccn1)C2=O,5.97
8,COc1ccc2c(c1)CCC(=Cc1cncc(Br)c1)C2=O,1.12
9,COc1ccc2c(c1)C(=O)C(=Cc1cccc(C=C3CCc4ccc(OC)cc4C3=O)c1)CC2,4.57
10,COc1ccc2c(c1)C(O)C(=Cc1cccnc1Cl)CC2 (stereo unspecified),1.37
11,COc1ccc2c(c1)CCC(=Cc1cnccc1OC)C2=O,0.2
12,COc1ccc2c(c1)CCC(=Cc1cccnc1Cl)C2=O,3.2
13,COc1ccc2c(c1)C(=O)C(=Cc1cccnc1OC)CC2,5.93
14,COc1ccc2c(c1)C(=O)C(=Cc1cccnc1Cl)CC2,1.79
15,COc1ccc2c(c1)CCC(=Cc1cccnc1Br)C2=O,3.58

# Pulled by structure from above, two records:
row,Structure (SMILES),Inhibition [%]
1,COc1ccc2c(c1)C(=O)C(=Cc1ccoc1)CC2,6.67
4,COc1cccc2c1CCC(=Cc1cccc(C=C3CCc4c(OC)cccc4C3=O)c1)C2=O,-14.78

# — ChEMBL document CHEMBL4513147, “CO-ADD screening of Armstrong State University (GA, USA) compounds”
